{
  "source": "PubChem BioAssay AID493014",
  "about": "(National Center for Advancing Translational Sciences (NCATS), 2011)",
  "experiment": "qHTS Assay to Find Inhibitors of Chronic Active B-Cell Receptor Signaling",
  "settings": "ABC-DLBCL IkBa-CBG/CBR reporter, luminescence ratio (green luciferase fused to IkBa over red control in TMD8 lymphoma cells), 4 h",
  "procedure,_shortened": "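Doxycycline induced both beetle luciferases in TMD8 lymphoma cells; IKK-driven degradation limits the IkappaBalpha-fused green signal, while red luminescence normalises for cell number and nonspecific effects. Compounds tested up to 46 uM, 4 hrs.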",
  "key": {"[1]": {"settings": "measured here: CBR red luminescence, cell number"}},
  "note": "The other results are listed elsewhere or left out. The main result of the screen is listed elsewhere. These columns were measured beside it and carry no call. The list favours compounds with an active or inconclusive main result. Words in brackets tell the shape of the fitted curve; partial curves, single points and poor fits give uncertain potencies.",
  "data": [
    {"molecule": "COc1ccc(NC(=O)CN(C)C(=O)c2cccc(S(=O)(=O)N3CCCc4ccccc43)c2)cc1", "values": [
      {"measurement": "AC50", "setting": "[1]", "value": "820 nM [rising, full curve, poor fit]"}
    ]},
    {"molecule": "O=[N+]([O-])c1cc(S(=O)(=O)N2CCCCC2)ccc1NCCCN1CCOCC1", "values": [
      {"measurement": "AC50", "setting": "[1]", "value": "112 nM [falling, full curve, poor fit]"}
    ]},
    {"molecule": "Cc1cccc(C2c3[nH]c4ccccc4c3CCN2C(=O)c2cn(C)c3ccccc3c2=O)n1", "note": "(stereo not drawn)", "values": [
      {"measurement": "AC50", "setting": "measured here: IkBa-CBG green luminescence", "value": "11200 nM [falling, partial curve, poor fit]"}
    ]},
    {"molecule": "CC1CCC/C(=C\\Nc2ccccc2C(=O)O)C1=O", "note": "(stereo not drawn)", "values": [
      {"measurement": "AC50", "setting": "[1]", "value": "2820 nM [falling, full curve]"}
    ]},
    {"molecule": "O=C(CN1C(=O)CSc2ccc(C(F)(F)F)cc21)Nc1ccccc1", "values": [
      {"measurement": "AC50", "setting": "[1]", "value": "35500 nM [rising, single point]"}
    ]},
    {"molecule": "C[C@H](CO)N1C[C@H](C)[C@@H](CN(C)C(=O)Nc2ccc(C(F)(F)F)cc2)Oc2c(NC(=O)CCC(F)(F)F)cccc2C1=O", "values": [
      {"measurement": "AC50", "setting": "[1]", "value": "731 nM [rising, full curve, poor fit]"}
    ]},
    {"molecule": "CCc1ccccc1NC(=O)COc1ccc2c(c1)OCO2", "values": [
      {"measurement": "AC50", "setting": "[1]", "value": "7940 nM [falling, partial curve]"}
    ]},
    {"molecule": "Cc1ccccc1/C=C\\c1nc2ccccc2c(=O)n1Cc1ccccc1", "values": [
      {"measurement": "AC50", "setting": "[1]", "value": "25900 nM [falling, single point]"}
    ]},
    {"molecule": "CC(=O)c1c(C(C)=O)c(C)n(C(c2ccccc2)c2ccccc2)c1C", "values": [
      {"measurement": "AC50", "setting": "[1]", "value": "20000 nM [falling, single point]"}
    ]},
    {"molecule": "Cc1ccc(C2=NNC(=O)C(c3c[nH]c4ccccc34)C2)cc1", "note": "(stereo not drawn)", "values": [
      {"measurement": "AC50", "setting": "[1]", "value": "1260 nM [falling, full curve, poor fit]"}
    ]},
    {"molecule": "O=C(Nc1ccc2c(c1)oc1ccccc12)c1cccnc1", "values": [
      {"measurement": "AC50", "setting": "[1]", "value": "12600 nM [falling, single point]"}
    ]},
    {"molecule": "CNC(=S)N/N=C/c1ccc(-c2ccc(C(=O)O)cc2)o1", "values": [
      {"measurement": "AC50", "setting": "[1]", "value": "3550 nM [falling, partial curve]"}
    ]},
    {"molecule": "O=C(NC1CCCC1)C(=O)c1c[nH]c2ccccc12", "values": [
      {"measurement": "AC50", "setting": "[1]", "value": "1000 nM [falling, full curve]"}
    ]},
    {"molecule": "COc1cccc2cc(C(=O)Nc3ccc(F)cc3)c(=Nc3ccc(C(=O)O)cc3)oc12", "values": [
      {"measurement": "AC50", "setting": "[1]", "value": "1780 nM [falling, full curve]"}
    ]},
    {"molecule": "COc1cc(SC)ccc1C(=O)Nc1cccc(S(=O)(=O)NC2=NCCCCC2)c1", "values": [
      {"measurement": "AC50", "setting": "[1]", "value": "20600 nM [falling, single point]"}
    ]},
    {"molecule": "O=C(CNC(=O)c1ccc(Cl)cc1Cl)OCc1nc2ccccc2s1", "values": [
      {"measurement": "AC50", "setting": "[1]", "value": "231 nM [rising, full curve, poor fit]"}
    ]},
    {"molecule": "CC(Sc1nnc(Nc2ccccc2)s1)C(=O)NC1CCCc2ccccc21", "note": "(stereo not drawn)", "values": [
      {"measurement": "AC50", "setting": "[1]", "value": "2060 nM [rising, full curve]"}
    ]},
    {"molecule": "O=C(NNC(=O)C1C2C=CC(C2)C1C(=O)O)c1ccccc1O", "note": "(stereo not drawn)", "values": [
      {"measurement": "AC50", "setting": "[1]", "value": "2000 nM [falling, full curve]"}
    ]}
  ]
}
